Data: PubChem BioAssay AID330 (DTP/NCI, 2004)
The list does not hold the whole screen: it is rich in T/C values a quarter to a half above the control, in often repeated tests (any T/C) and in doses without a T/C. Other doses and runs of a compound stand elsewhere. T/C is the treated group as % of the vehicle group. Some entries give survivors of the animals treated and no T/C: the source files T/C as zero there, which appears to mark a toxic dose or a test without result, not a measured value. Some survivor counts are full or nearly so, which does not show that the dose was tolerated: survival well below the control is almost never listed, so the zero probably covers shortened survival too. Counts of survivors are from the toxicity check (mostly the fifth day) where no day follows; animals may have died later. Schedule codes are those of the source, taken here to give the interval after Q, in days (D) or hours (H), and the number of doses after X. Some entries were tested several times; their values stand side by side, smallest first. Some structures stand for samples that the source files as different forms (salt, stereo form or complex); doses refer to the form tested. For survival time, this PubChem deposit counts one and a half times the control or more as active, and values a quarter to a half above the control carry no call in these data; other NCI protocols may use other cut-offs. Some T/C values are followed by the survivors on the day toxicity was checked, most often the fifth; without a count, all were alive then.

Tested on: P388 leukemia ip, CD2F1 mice, survival T/C
Experiment: NCI In Vivo Anticancer Drug Screen. Data for tumor model P388 Leukemia (intraperitoneal) in CD2F1 (CDF1) mice
Settings: T/C endpoint: median survival time, higher T/C = longer survival
[1] = dose: 50.0 mg/kg/injection, schedule: Q01DX009 (ip), vehicle: Klucel (hydroxypropylcellulose) (HPC)
[2] = dose: 200.0 mg/kg/injection, schedule: Q01DX005 (ip), vehicle: Klucel (hydroxypropylcellulose) (HPC)
[3] = dose: 25.0 mg/kg/injection, schedule: Q01DX009 (ip), vehicle: saline with Tween-80
[4] = dose: 100.0 mg/kg/injection, schedule: Q01DX009 (ip), vehicle: saline
[5] = dose: 200.0 mg/kg/injection, schedule: Q01DX009 (ip), vehicle: saline
[6] = dose: 100.0 mg/kg/injection, schedule: Q01DX009 (ip), vehicle: saline with Tween-80
[7] = dose: 200.0 mg/kg/injection, schedule: Q01DX009 (ip), vehicle: saline with Tween-80
[8] = dose: 200.0 mg/kg/injection, schedule: Q04DX003 (ip), vehicle: saline with Tween-80
[9] = dose: 400.0 mg/kg/injection, schedule: Q04DX003 (ip), vehicle: saline with Tween-80
[10] = dose: 50.0 mg/kg/injection, schedule: Q01DX005 (ip), vehicle: saline
[11] = dose: 100.0 mg/kg/injection, schedule: Q01DX005 (ip), vehicle: saline
[12] = dose: 200.0 mg/kg/injection, schedule: Q01DX005 (ip), vehicle: saline

Nc1ccccc1.O=C([CH-]C(=O)C(F)(F)F)c1ccccc1.O=C([CH-]C(=O)C(F)(F)F)c1ccccc1.O=C([CH-]C(=O)C(F)(F)F)c1ccccc1.O=C([CH-]C(=O)C(F)(F)F)c1ccccc1.[Eu+3]
survivor count [1]: 6 of 6

NC(=O)Nc1cc2[nH]c(=O)oc2cc1Cl
survivor count (dose: 50.0 mg/kg/injection, schedule: Q01DX005 (ip), vehicle: Klucel (hydroxypropylcellulose) (HPC)): 6 of 6 | survivor count [2]: 1 of 6

CCOc1c(N=Nc2cccc([N+](=O)[O-])c2)c(C)nn1C(N)=S
survivor count (dose: 60.0 mg/kg/injection, schedule: Q01DX005 (ip), vehicle: Klucel + Tween-80): 0 of 6 and 3 of 6 | survivor count (dose: 120.0 mg/kg/injection, schedule: Q01DX005 (ip), vehicle: Klucel + Tween-80): 0 of 6 | survivor count (dose: 240.0 mg/kg/injection, schedule: Q01DX005 (ip), vehicle: Klucel + Tween-80): 0 of 6

COc1cc(C2C(C(C)=O)=C(C)Oc3cc4c(cc32)OCO4)cc(OC)c1O (stereo unspecified)
survivor count (dose: 120.0 mg/kg/injection, schedule: Q01DX005 (ip), vehicle: saline with Tween-80): 6 of 6 | survivor count (dose: 240.0 mg/kg/injection, schedule: Q01DX005 (ip), vehicle: saline with Tween-80): 6 of 6

CC(C(=O)S)C(O)(c1ccccc1)c1ccccc1 (stereo unspecified)
survivor count (dose: 200.0 mg/kg/injection, schedule: Q04DX003 (ip), vehicle: Klucel (hydroxypropylcellulose) (HPC)): 0 of 6 | survivor count (dose: 400.0 mg/kg/injection, schedule: Q04DX003 (ip), vehicle: Klucel (hydroxypropylcellulose) (HPC)): 0 of 6

NC(=O)N1C(=O)C=CC1=O
survivor count [2]: 1 of 5

NS(=O)(=O)c1ccc(N=Cc2cnc3ccccc3c2)cc1
survivor count (dose: 5.0 mg/kg/injection, schedule: Q01DX009 (ip), vehicle: saline): 6 of 6

CC1(C)N=C(N)N=C(N)N1c1ccc(OCCNS(=O)(=O)c2cccc(S(=O)(=O)F)c2)c(Cl)c1
T/C (dose: 12.5 mg/kg/injection, schedule: Q01DX009 (ip), vehicle: saline with Tween-80): 125 % of control | T/C [3]: 127 % of control | T/C (dose: 50.0 mg/kg/injection, schedule: Q01DX009 (ip), vehicle: saline with Tween-80): 143 % of control | T/C [4]: 130 % of control [5 of 6 alive] | survivor count [5]: 1 of 6 | survivor count (dose: 400.0 mg/kg/injection, schedule: Q01DX009 (ip), vehicle: saline): 0 of 6

CCOC1OCN(C(C)(C)C)CC1(C)C (stereo unspecified)
T/C [6]: 135 % of control | T/C [7]: 125 % of control

CNC(=O)OCc1c(COC(=O)NC)c(-c2ccc(C(F)(F)F)cc2)n(C)c1C
T/C (dose: 6.25 mg/kg/injection, schedule: Q01DX009 (ip), vehicle: distilled water + Tween-80): 131 % of control | T/C (dose: 12.5 mg/kg/injection, schedule: Q01DX009 (ip), vehicle: distilled water + Tween-80, evaluated on day 30): 142 % of control | T/C (dose: 12.5 mg/kg/injection, schedule: Q01DX009 (ip), vehicle: distilled water + Tween-80, evaluated on day 40): 141 % of control | T/C (dose: 25.0 mg/kg/injection, schedule: Q01DX009 (ip), vehicle: distilled water + Tween-80, evaluated on day 30): 141 % of control | T/C (dose: 25.0 mg/kg/injection, schedule: Q01DX009 (ip), vehicle: distilled water + Tween-80, evaluated on day 40): 149 % of control | survivor count (dose: 50.0 mg/kg/injection, schedule: Q01DX009 (ip), vehicle: distilled water + Tween-80): 6 of 6 | survivor count (dose: 100.0 mg/kg/injection, schedule: Q01DX009 (ip), vehicle: distilled water + Tween-80): 1 of 6 | survivor count (dose: 200.0 mg/kg/injection, schedule: Q01DX009 (ip), vehicle: distilled water + Tween-80): 0 of 6

Clc1ccc(C2=CSC3=NCCN23)cc1
survivor count [1]: 6 of 6 | survivor count (dose: 100.0 mg/kg/injection, schedule: Q01DX009 (ip), vehicle: Klucel (hydroxypropylcellulose) (HPC)): 0 of 6

CC(C)c1ccc(OS(=O)(=O)C(F)(F)C(F)(F)C(F)(F)C(F)(F)F)cc1
survivor count [7]: 6 of 6

Cc1ccc(S(=O)(=O)N/N=C/c2ccc(O)c(O)c2)cc1
T/C (dose: 400.0 mg/kg/injection, schedule: Q01DX009 (ip), vehicle: other): 128 % of control [5 of 6 alive]

C#C/C=C/CC1O[C@H](/C=C/C)C/C=C\CC1Cl (stereo partly specified)
survivor count (dose: 125.0 mg/kg/injection, schedule: Q01DX005 (ip), vehicle: Klucel (hydroxypropylcellulose) (HPC)): 4 of 5

COC(/C=N/OC(=O)c1ccccc1)c1ccccc1 (stereo unspecified)
survivor count (dose: 50.0 mg/kg/injection, schedule: Q04DX003 (ip), vehicle: saline with Tween-80): 6 of 6 | survivor count (dose: 100.0 mg/kg/injection, schedule: Q04DX003 (ip), vehicle: saline with Tween-80): 3 of 6 and 4 of 6 | survivor count [8]: 0 of 6 and 1 of 6 | survivor count [9]: 0 of 6 and 1 of 6

C/C(=N\N=C(\[Se])N1CC(C)OC(C)C1)c1ccccn1 (stereo unspecified)
survivor count [8]: 4 of 6 | survivor count [9]: 3 of 6

N#CC1=C(Nc2ccccc2Cl)SC(c2ccncc2)NC1=O (stereo unspecified)
T/C (dose: 60.0 mg/kg/injection, schedule: Q01DX005 (ip), vehicle: Klucel (hydroxypropylcellulose) (HPC)): 126 % of control

CS(=O)(=O)c1nc(N)c(S(N)(=O)=O)c(N)n1
survivor count (dose: 200.0 mg/kg/injection, schedule: Q01DX009 (ip), vehicle: Klucel (hydroxypropylcellulose) (HPC)): 6 of 6 | survivor count (dose: 400.0 mg/kg/injection, schedule: Q01DX009 (ip), vehicle: Klucel (hydroxypropylcellulose) (HPC)): 6 of 6

O=[n+]1c2ccccc2n([O-])c2cc(Cl)ccc21
T/C [3]: 139 % of control | survivor count [7]: 5 of 6 and 6 of 6 | survivor count (dose: 400.0 mg/kg/injection, schedule: Q01DX009 (ip), vehicle: saline with Tween-80): 1 of 6

Cc1ccc(-n2nc(C(O)C(O)C(O)CO)c3nc4cc(C)c(C)cc4nc32)cc1 (stereo unspecified)
survivor count (dose: 100.0 mg/kg/injection, schedule: Q01DX005 (ip), vehicle: saline with Tween-80): 3 of 6

CS(=O)(=O)CS(=O)(=O)OCCF
T/C (dose: 6.25 mg/kg/injection, schedule: Q01DX005 (ip), vehicle: saline): 142 % of control | survivor count [10]: 0 of 6 | survivor count [11]: 0 of 6

O=[N+]([O-])c1cnc(/C=N/N2CCN(/N=C/c3ncc([N+](=O)[O-])[nH]3)CC2)[nH]1
survivor count [6]: 6 of 6 | survivor count [7]: 6 of 6

CCCCNC1CC(OC2CC(O)(C(C)=O)Cc3c(O)c4c(c(O)c32)C(=O)c2c(OC)cccc2C4=O)OC(C)C1O (stereo unspecified)
T/C (dose: 32.0 mg/kg/injection, schedule: Q01DX009 (ip), vehicle: water): 136 % of control

CCN(CC)CCCC(C)Nc1nc(-c2ccc(OC)cc2)nc2cc(Cl)ccc12 (stereo unspecified)
survivor count [12]: 1 of 5

CC1NC(=O)OC12CCCCC2 (stereo unspecified)
survivor count [6]: 0 of 6 | survivor count [7]: 0 of 6

ClCCN1c2ccccc2Sc2ccc3ccccc3c21
survivor count (dose: 200.0 mg/kg/injection, schedule: Q01DX005 (ip), vehicle: saline with Tween-80): 6 of 6

COP(=O)(O)OC.[V]
survivor count [8]: 5 of 6 | survivor count [9]: 1 of 6

C[N+]1=C(/C=C/Nc2cccc(N/C=C/C3=[N+](C)c4ccccc4C3(C)C)c2)C(C)(C)c2ccccc21
survivor count (dose: 100.0 mg/kg/injection, schedule: Q01DX005 (ip), vehicle: Klucel (hydroxypropylcellulose) (HPC)): 3 of 6 | survivor count [2]: 1 of 6

O=C(Nc1ccc(Cl)cc1)Nc1nnc(COc2ccccc2)o1
survivor count (dose: 15.0 mg/kg/injection, schedule: Q01DX005 (ip), vehicle: saline with Tween-80): 6 of 6 | survivor count (dose: 30.0 mg/kg/injection, schedule: Q01DX005 (ip), vehicle: saline with Tween-80): 6 of 6 | survivor count (dose: 60.0 mg/kg/injection, schedule: Q01DX005 (ip), vehicle: saline with Tween-80): 6 of 6

O=C1C(Br)=C(Nc2ccccc2)C(=O)C(Br)=C1Nc1ccccc1
survivor count [2]: 5 of 5

N=c1ccn(O)cc1
survivor count [10]: 0 of 6 | survivor count (dose: 50.0 mg/kg/injection, schedule: Q01DX009 (ip), vehicle: saline): 3 of 6 and 5 of 6 | survivor count [11]: 0 of 6 | survivor count [4]: 0 of 6 | survivor count [12]: 0 of 6 | survivor count [5]: 0 of 6

CCN(CC)CCCNc1ccc([N+](=O)[O-])c2no[n+]([O-])c12
survivor count [5]: 0 of 6
